# PubChem BioAssay AID1259267 – Sanger Institute, 2017
# Assay: 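Essential and drug-synergistic knock-downs in GP5D bowel cancer cells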 (primary screen)
# System: human GP5D colorectal cancer cells
# Reagent: siRNA pool against human genes
# Challenge: anchor drugs at low dose: BYL719 1 µM, cetuximab 5 µg/ml, trametinib 10 nM, or DMSO vehicle
# Measured: 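Mean replicate viability versus non-targeting pool, given as knock-down-alone robust z-score, DMSO fraction, and synergy with low-dose BYL719, cetuximab or trametinib (1 µM, 5 µg/ml, 10 nM)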
# Scale: robust z-score, knock-down alone and viability with DMSO: higher = more viable cells; synergy score with trametinib and synergy score with BYL719: higher = stronger synthetic lethal synergy with drug
# Hit rule: 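a robust z-score below -3 for the knock-down by itself makes a gene active, i.e. essential alone; synergy scores are ignored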
# Calls: active = essential alone; inactive = not essential
# Shown is a random part of 794 reagents. 9 of all reagents (1.1%) count as active. 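Viability capped at 1; calls reflect loss of viability from knock-down alone, not synergy with drugs.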 Not all columns of the deposit are shown. The record does not give: the amount of reagent, the time to read-out.
Target gene,"robust z-score, knock-down alone",viability with DMSO (fraction of control),synergy score with trametinib,synergy score with BYL719,Call
NEK4 (NIMA related kinase 4),0.817,1,0.0158,-0.218,inactive
AKAP9 (A-kinase anchoring protein 9),0.594,0.953,-0.126,-0.102,inactive
DGUOK (deoxyguanosine kinase),0.408,0.913,-0.0679,-0.0257,inactive
PLK2 (polo like kinase 2),0.817,1,-0.18,-0.0569,inactive
MAPK13 (mitogen-activated protein kinase 13),0.817,1,-0.126,-0.0739,inactive
PRKAA1 (protein kinase AMP-activated catalytic subunit alpha 1),0.817,1,0.202,-0.019,inactive
EPHB2 (EPH receptor B2),0.62,0.958,0.166,-0.0912,inactive
ERN2 (endoplasmic reticulum to nucleus signaling 2),0.817,1,-0.0131,-0.152,inactive
TAB1 (TGF-beta activated kinase 1 (MAP3K7) binding protein 1),0.817,1,0.175,-0.135,inactive
MAST2 (microtubule associated serine/threonine kinase 2),0.817,1,-0.197,-0.201,inactive
ADPGK (ADP dependent glucokinase),0.653,0.965,-0.0737,-0.313,inactive
TGFBR3 (transforming growth factor beta receptor 3),0.27,0.884,-0.152,-0.11,inactive
AAK1 (AP2 associated kinase 1),0.133,0.855,0.0311,-0.13,inactive
MARK2 (microtubule affinity regulating kinase 2),-0.2,0.784,0.0917,-0.211,inactive
TWF2 (twinfilin actin binding protein 2),-1.84,0.437,-0.383,-0.421,inactive
PRKY (protein kinase Y-linked (pseudogene)),0.817,1,0.0175,-0.195,inactive
ACO1 (aconitase 1),-0.213,0.782,0.196,0.00977,inactive
MAGI2,0.817,1,0.0807,-0.0814,inactive
TEK (TEK receptor tyrosine kinase),0.817,1,-0.0236,-0.17,inactive
PTK6 (protein tyrosine kinase 6),0.205,0.87,-0.101,-0.138,inactive
CUL1 (cullin 1),0.817,1,-0.197,-0.166,inactive

Sorted by “synergy score with BYL719” (ascending): some entries from above.
Target gene,"robust z-score, knock-down alone",viability with DMSO (fraction of control),synergy score with trametinib,synergy score with BYL719,Call
PRKY (protein kinase Y-linked (pseudogene)),0.817,1,0.0175,-0.195,inactive
ACO1 (aconitase 1),-0.213,0.782,0.196,0.00977,inactive

Continued.
Target gene,"robust z-score, knock-down alone",viability with DMSO (fraction of control),synergy score with trametinib,synergy score with BYL719,Call
GCK (glucokinase),-0.145,0.796,0.258,0.0736,inactive
ETNK1 (ethanolamine kinase 1),0.817,1,0.0262,-0.0761,inactive
CSNK1D (casein kinase 1 delta),0.657,0.966,0.179,-0.11,inactive
WT1 (WT1 transcription factor),-0.0959,0.807,-0.352,-0.319,inactive
DCLK3 (doublecortin like kinase 3),-0.224,0.779,0.0766,-0.251,inactive
MAP4K2 (mitogen-activated protein kinase kinase kinase kinase 2),0.209,0.871,-0.0691,-0.191,inactive
DGKK (diacylglycerol kinase kappa),0.817,1,-0.197,-0.0953,inactive
CPNE3 (copine 3),0.817,1,-0.092,-0.132,inactive
CAMK1D (calcium/calmodulin dependent protein kinase ID),0.817,1,-0.14,-0.251,inactive
CAMK2B (calcium/calmodulin dependent protein kinase II beta),0.233,0.876,0.126,-0.104,inactive
DAPK1 (death associated protein kinase 1),0.817,1,0.311,-0.159,inactive
NR4A2 (nuclear receptor subfamily 4 group A member 2),-0.889,0.638,0.0912,-0.0613,inactive
TSSK2 (testis specific serine kinase 2),-0.0341,0.82,0.159,-0.0321,inactive
